Experimental data reported in PubChem BioAssay AID2685 (National Center for Advancing Translational Sciences (NCATS), 2010).
Out of some 320,000 compounds screened, about 2,100 (0.66%) were called active. Inconclusive means that the source gave no clear call. Such entries were picked first, then a sample of the others. Calls follow the shape of the dose curve; as a rule, active = well fitted inhibition curve with a large enough effect in the signal ratio, with a control signal flat (not every such curve was filed as active); inconclusive = small, poorly fitted or top-dose-only effect, or effect the other way, or a change in a side signal; inactive = flat fitted curve, though single readings scatter; the % refers to the signal ratio. Where the call is inconclusive, the potency comes from a doubtful curve fit. A note “side channel” means that the fit belongs to a control or component signal, not to the main read-out.

Assay: qHTS Assay for Lipid Storage Modulators in Drosophila S3 Cells
Settings: BODIPY lipid droplet fluorescence, 18-24 h, cells fed with added oleic acid; lipid storage change, negative = inhibition: at 46.1 µM (top of the series) unless noted
In short: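 Laser-scanning cytometry quantifies lipid droplet accumulation (500–530 nm total intensity; droplet/cell object ratio) in oleic acid-fed (400 uM added) Drosophila S3 cells treated with a concentration series. 20 uM Triacsin C defined 100% inhibition.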
% is scaled to controls: 0 for no effect and ±100 for the full control effect; potency is read from the fitted curve at half-maximal effect.

| SMILES | lipid storage change, negative = inhibition | Potency |
| --- | --- | --- |
| c1ccc(-c2cc(-c3nc(-c4cccnc4)no3)c3ccccc3n2)cc1 | inconclusive: 25.4% | – |
| O=c1cccc2n1Cc1cc3ccccc3nc1-2 | inconclusive: -0.58% | – |
| COc1cccc(CN2CCN(CCCc3ccccc3)C(CCO)C2)c1O (stereo not given) | inconclusive: 0.816% | – |
| Cc1cc(N2CCOCC2)nc(-c2ccc(Br)cc2)n1 | inconclusive: 11.5% | – |
| CCc1ccccc1NC(=S)N1CCC(C(=O)c2ccc(F)cc2)CC1 | inconclusive: -22.3% | – |
| O=C(Nc1ccncc1)Nc1ccc(Cl)cc1Cl | – | inconclusive: 29.1 µM [activator, single point] |
| CN(C)CCCn1c2c(c(SCC(=O)Nc3ccc4c(c3)OCCO4)nc1=O)CCC2 | inconclusive: 20.5% | – |
| COc1ccc(Nc2nc(C)cc(=O)[nH]2)c(OC)c1 | – | inconclusive: 23.1 µM [rising, partial curve] |
| COCCn1cnnc1SCC(=O)Nc1cccc(S(=O)(=O)N(C)c2ccccc2)c1 | inconclusive: 5.08% [at 9.22 µM] | – |
| CCOc1ccccc1NC(=O)c1ccc2nccnc2c1 | – | inconclusive: 1.64 µM [activator, full curve] |
| COc1ccc(-c2nnc3n2N=C(C)CS3)cc1OC | – | inconclusive: 6.51 µM [activator, single point] |
| O=C1CCc2cc(S(=O)(=O)N3CCCCC3)cc3c2N1CC3 | inconclusive: 6.36% | – |
| O=C(Nc1nc2ccc(SC(F)F)cc2s1)c1ccc2c(c1)S(=O)(=O)c1ccccc1C2=O | – | inconclusive: 4.11 µM [falling, single point] |
| COc1ccc(NC(=S)NCc2ccccc2)c(OC)c1 | inconclusive: -37.2% | – |
| Nc1nnc(CCCCCc2nnc(N)s2)s1 | inconclusive: 8.23% | – |
| O=C(NCCN1CCOCC1)c1ccc(NS(=O)(=O)c2cccc([N+](=O)[O-])c2)cc1 | inconclusive: 14% | – |
| Cc1ccc(Nc2ccc([N+](=O)[O-])cn2)cc1Cl | – | inconclusive: 29.1 µM [falling, single point] |
| COC(=O)C1=C(C)N(c2ccc(OC)cc2)C(C)=C(C(=O)OC)C1c1ccc(OC)cc1 | inconclusive: 15% | – |
| CCCCn1c(N)c(Sc2ccc(C)cc2)c(=O)[nH]c1=O | inconclusive: 10.5% | – |
| CCCCN(CCCC)CCNC(=O)c1cn(CC)c2ccc(S(=O)(=O)N3CCCC3)cc2c1=O | inconclusive: 192% | – |
| COc1cccc(-c2cc(C(=O)NCc3ccc(Cl)cc3)no2)c1 | inconclusive: 42.2% | – |
| COc1ccccc1NS(=O)(=O)c1ccc(NC(=O)c2nc3nc(C)cc(C(F)F)n3n2)cc1 | – | inconclusive: 0.259 µM [activator, partial curve, poor fit] |
| CCOc1ccc(C(=O)OCC(=O)NCCNC(=O)COC(=O)c2ccc(OCC)cc2)cc1 | inconclusive: -1.37% | – |
| CCCCCc1ccc(CC(=O)Nn2c(C)nc3ccccc3c2=O)cc1 | – | inconclusive: 6.51 µM [activator, single point] |
| C=CCN=C1NN=C(c2ccc3c(c2)OCCO3)CS1 | inconclusive: 32% | – |

| SMILES | lipid storage change, negative = inhibition | Potency |
| --- | --- | --- |
| CS(=O)(=O)c1ccc(Cl)c(NC(=O)C2CC(=O)N(Cc3ccco3)C2)c1 (stereo not given) | inconclusive | – |
| COC(=O)Cc1csc(Nc2ccc(Cl)cc2)n1 | inconclusive: 10.5% | – |
| CCCCN(C(=O)c1ccc(N2CCCC2=O)cc1)c1c(N)n(CCC)c(=O)[nH]c1=O | inconclusive: -24.5% | – |
| COC(=O)CN1C(=S)N(c2ccccc2)C(=O)C1CC(=O)Nc1ccc(Cl)cc1 (stereo not given) | inconclusive: -111% | – |
| CCOc1ccc(/C(O)=C2/C(=O)C(=O)N(c3ncccn3)C2c2ccccc2)cc1 (stereo not given) | – | inconclusive: 1640 µM [side channel, rising, partial curve, poor fit] |
| CCCNc1c(NS(=O)(=O)c2ccc3c(c2)CCCC3)c(=O)oc2ccccc12 | inactive: 13.3% | – |
| c1ccc(Cc2ccc(OCCn3ccnc3)cc2)cc1 | – | active: 3.66 µM |
| Cc1cc(C)nc(N(C#N)S(=O)(=O)c2ccccc2)n1 | inconclusive: -20.1% | – |
| COc1cccc(NC(=O)c2ccccc2)c1 | – | inconclusive: 23.1 µM [activator, single point] |
| COc1ccccc1N1CCN(C(=O)C2CCN(S(=O)(=O)c3ccc(C)cc3)CC2)CC1 | inconclusive: 22.9% | – |
| COc1ccc(C(=O)NC(=S)Nc2nc(C)cc(C)n2)cc1Br | inconclusive: 20% | – |
| c1ccc(CSc2nnc3c4ccccc4c4ccccc4c3n2)cc1 | – | inconclusive: 0.184 µM [activator, full curve, poor fit] |
| COc1ccc(-c2oc(=O)c3cc(OC)c(OC)cc3c2/C=C/c2cccc([N+](=O)[O-])c2)cc1 | inconclusive: -2.97% | – |
| Cc1nn(Cc2ccccc2)c(Cl)c1C(=O)OC1CCOC1=O (stereo not given) | inconclusive: 19.9% | – |
| O=C(CCSc1ccc(F)cc1)NNC(=O)c1ccccc1Cl | inconclusive: 15.1% | – |
| COc1cccc(C(=O)N2CCN(Cc3cn[nH]c3-c3ccc(F)cc3F)CC2)c1 | inconclusive: 1.94% | – |
| O=C(NC1CCCCC1)C(Cc1ccccc1)NS(=O)(=O)c1cccs1 (stereo not given) | – | inconclusive: 3.66 µM [falling, single point] |
| OC1CCCN(CC(O)COc2ccc(-c3ccccc3)cc2)C1 (stereo not given) | inconclusive: -129% | – |
| O=C1COc2ccc(S(=O)(=O)NCCc3ccccc3)cc2N1 | – | inconclusive: 0.58 µM [activator, single point] |
| COc1ccc(NC(=S)Nc2ccccc2C(F)(F)F)cc1 | inconclusive: -12.6% | – |
| CN(C(=O)c1cccc(S(=O)(=O)N2CCCCC2)c1)C1CCS(=O)(=O)C1 (stereo not given) | inconclusive: 10.1% | – |
| Cc1cc(=O)[nH]c(SCC(=O)Nc2ccc(F)c([N+](=O)[O-])c2)n1 | inconclusive: 60.8% | – |
| CC(NC(=O)Nc1ccccc1O)(C(F)(F)F)C(F)(F)F | inconclusive: -15.1% | – |
| Cc1cccc(CC(C)NC(=O)CCc2nnc(CCCCc3ccccc3)o2)n1 (stereo not given) | inconclusive: 18.8% | – |
| O=C(Cn1cncn1)N/N=C/c1c2ccccc2cc2ccccc12 | inconclusive: 32.3% | – |

Quoted from the listing.
Under Potency, O=C(Nc1ccncc1)Nc1ccc(Cl)cc1Cl is entered as inconclusive: 29.1 µM [activator, single point]
Under lipid storage change, negative = inhibition, CN(C)CCCn1c2c(c(SCC(=O)Nc3ccc4c(c3)OCCO4)nc1=O)CCC2 is entered as inconclusive: 20.5%
Under lipid storage change, negative = inhibition, O=C1CCc2cc(S(=O)(=O)N3CCCCC3)cc3c2N1CC3 is entered as inconclusive: 6.36%
Under Potency, CCCCCc1ccc(CC(=O)Nn2c(C)nc3ccccc3c2=O)cc1 is entered as inconclusive: 6.51 µM [activator, single point]
